Experimental findings from PubChem BioAssay AID2685 (National Center for Advancing Translational Sciences (NCATS), 2010) are described below.

A word on the AC50: it is the concentration giving half of the maximal activity seen. A high value points to weaker potency.

Structures are written as SMILES. The list shows a part of the results. The main result of the screen is listed elsewhere. These columns were measured beside it and carry no call. Most of these compounds were active or inconclusive in the main read-out, so they are no random draw. Words in brackets tell the shape of the fitted curve; partial curves, single points and poor fits give uncertain potencies.

The test is described as follows: qHTS Assay for Lipid Storage Modulators in Drosophila S3 Cells.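 On cell number change: cells counted by Cell Tracker Red CMTPX staining in the red channel.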 To be noted: BODIPY lipid droplet fluorescence, 18-24 h; for cell number change: measured here: cell count max response, cells fed with added oleic acid. The gist of the method: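 Drosophila S3 cells got compounds at several concentrations plus oleic acid (400 uM solution). Laser-scanning cytometry with 488 nm excitation read lipid droplets at 500-530 nm and cells at 575-640 nm. Percent activity was relative to 20 uM Triacsin C.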
In general terms: In qHTS, concentration-response curves come from the screen itself.

Setting [1] is: measured here: cell number channel AC50, cells fed with added oleic acid.
Where [2] appears, read: measured here: lipid fluorescence (Fed channel) AC50, cells fed with added oleic acid.

For the compound `COP(=O)(OC)c1nc(-c2cccc3ccccc23)oc1NCCc1ccccc1`, under setting [1], the AC50 was 32.6 µM [falling, single point].

With `O=C1NC(=O)C(=Cc2ccc(Sc3ccccc3)o2)C(=O)N1`, the cell number change was -58.9%. Also, the concentration at half-maximal activity (AC50) under setting [1] is 32.6 µM [falling, single point]. In addition, under setting [2], the concentration at half-maximal activity (AC50) is 29.1 µM [falling, single point].

Consider `Clc1ccc(C2N3CCCN23)c(Cl)c1` (stereo unspecified), for which the cell number change was determined as 27.8%. Further, the AC50 under setting [2] was 0.259 µM [rising, full curve].

Turning to `COC(=O)Nc1ccc(N=C(N)N[N+](=O)[O-])cc1`, the cell number change was -8.41%. Also, the half-maximal activity concentration (AC50) under setting [1] was 6.51 µM [falling, single point].

For the compound `O=C(NCc1ccc(C(=O)N2CCC3(CC2)OCCO3)cc1)c1cccc(Br)c1`, the cell number change came out at 10.6%. Besides, the half-maximal activity concentration (AC50) under setting [2] was 4.11 µM [rising, full curve, poor fit].

With `COc1ccccc1OC(=O)c1ccc(C)c(S(=O)(=O)N2CCOCC2)c1`, the cell number change came out at 17.9%. In addition, the AC50 under setting [2] is 0.58 µM [rising, single point].

Take `OC(CN1CCCCC1)c1c[nH]c2ccccc12` (stereo unspecified): the cell number change is -6.31%. Also, under setting [1], the AC50 is 0.206 µM [falling, full curve, poor fit].

For the compound `O=C(Nc1ccc(F)c([N+](=O)[O-])c1)N1C[C@H]2C[C@@H](C1)c1cccc(=O)n1C2`, the cell number change was -15.9%.

In the case of `COC(=O)NC(=C(Cl)Cl)P(=O)(c1ccccc1)c1ccccc1`, the cell number change is -14.7%. The half-maximal activity concentration (AC50) under setting [2] was 0.651 µM [falling, full curve].

On to `Cc1ccc(C)c(NC(=S)NCCc2cnc[nH]2)c1`, for which the cell number change turned out to be 24.4%. In addition, the AC50 under setting [2] was 18.4 µM [rising, single point].

In the case of `COC(=O)C1=C(c2ccc(F)cc2F)C[C@@H]2CC[C@H]1N2C(=O)NCCOc1ccc(OC)cc1`, the cell number change was -39.5%. Under setting [1], the half-maximal activity concentration (AC50) was 32.6 µM [falling, single point]. Besides, under setting [2], the half-maximal activity concentration (AC50) is 29.1 µM [falling, single point].

With `O=C1NC(=O)C(=Cc2ccc(-c3ccc(Cl)cc3)o2)C(=O)N1`, the cell number change was -34.4%. Further, the half-maximal activity concentration (AC50) under setting [1] was 0.00651 µM [falling, full curve, poor fit].

With `C=CCn1c(O)c(C(C)=Nc2cccc(C(=O)O)c2)c(=O)[nH]c1=O`, the cell number change is -30.4%. For the same compound, under setting [1], the half-maximal activity concentration (AC50) was 32.6 µM [falling, single point]. The half-maximal activity concentration (AC50) under setting [2] is 23.1 µM [falling, single point].

Take `O=c1oc2ccccc2n1Cc1cccc(Cl)c1`: under setting [1], the AC50 was 29.1 µM [falling, single point].

For the compound `O=C(c1ccc(F)cc1Cl)N1CCC2(CC1)OCCO2`, the cell number change turned out to be 13.5%. The AC50 under setting [2] was 18.4 µM [rising, single point].

On to `COc1cc(Cn2c(N)c(C(=O)NCc3ccco3)c3nc4ccccc4nc32)cc(OC)c1OC`, for which the cell number change was -33.2%.

Take `COC(=O)C1=C(c2cccc(C#N)c2)C[C@@H]2CC[C@H]1N2C(=O)NCCCOC(C)C`: the cell number change came out at 15.3%. Moreover, the concentration at half-maximal activity (AC50) under setting [2] is 23.1 µM [rising, single point].

For the compound `CC(Cc1ccccc1Sc1ccccc1O)N(C)C` (stereo unspecified), the cell number change was -72.6%. Besides, the AC50 under setting [1] is 16.4 µM [falling, single point].

Turning to `CN(C)C(=O)Nc1cccc(OC(=O)N(C)C)c1`, the AC50 under setting [2] is 0.651 µM [falling, single point].

Consider `CC/C(=N\N1CCCCC1)c1c(O)[nH]c(=O)[nH]c1=O`, for which the cell number change is -45.2%. For the same compound, the AC50 under setting [2] was 4.61 µM [falling, partial curve].

For the compound `COc1nc(NC(C)C)nc(NC(C)C)n1`, the cell number change was 52.2%. For the same compound, the AC50 under setting [1] is 32.6 µM [rising, single point]. Under setting [2], the concentration at half-maximal activity (AC50) is 18.4 µM [rising, partial curve].

Take `CCCC(=O)NC(Oc1ccc(C(C)=O)cc1)C(Cl)(Cl)Cl` (stereo unspecified): the cell number change was -24.5%. Moreover, the AC50 under setting [1] is 0.116 µM [falling, full curve, poor fit]. Further, the half-maximal activity concentration (AC50) under setting [2] is 0.651 µM [falling, full curve].

`Nc1cc(N2CCNCC2)c([N+](=O)[O-])cc1Cl`: the cell number change was -22%. Also, the AC50 under setting [1] was 0.00517 µM [falling, full curve, poor fit].

For `COc1ccccc1CC(=O)N1CCN(CCc2ccccc2)CC1`, the cell number change was -3.3%. Moreover, the AC50 under setting [2] is 1.3 µM [rising, full curve].

For the compound `Cc1cccc(NC(=O)C(C)N2CC=C(c3ccccc3)CC2)c1` (stereo unspecified), under setting [2], the AC50 was 29.1 µM [rising, single point].

On to `COc1ccc(CCNCc2ccsc2)cc1OC`, for which the cell number change turned out to be 4.76%. Moreover, the concentration at half-maximal activity (AC50) under setting [2] is 0.461 µM [falling, single point].

Turning to `CCCn1ncc(C(=O)O)c1C`, the cell number change is -8.97%. Further, the AC50 under setting [2] is 29.1 µM [falling, single point].

`C[N+]1(C)[C@@H]2CC[C@H]1CC(OC(=O)[C@@H](CO)c1ccccc1)C2` (stereo partly specified): the cell number change came to 19.8%.

Take `CC(C)CNP(=S)(c1ccccc1)C(C)(C)C` (stereo unspecified): the cell number change is -12.1%. Moreover, the AC50 under setting [1] is 1.64 µM [falling, partial curve, poor fit].

As for `C=CCN1CCc2cccc3c2[C@H]1Cc1ccc(O)c(O)c1-3`, the cell number change turned out to be 1.35%.

On to `CC(c1ccccc1)[n+]1ccccc1` (stereo unspecified), for which the cell number change came out at 3.3%. Also, the concentration at half-maximal activity (AC50) under setting [1] is 6.51 µM [falling, single point].

With `O=C1NC(=O)C(=Cc2ccc(-c3ccccc3[N+](=O)[O-])o2)C(=O)N1`, the cell number change was -43.1%. Besides, the AC50 under setting [1] was 29.1 µM [falling, single point]. Further, under setting [2], the AC50 is 5.17 µM [falling, partial curve].

As to `CC(C)(C)OC(=O)c1c(N)n(Cc2ccco2)c2nc3ccccc3nc12`, the cell number change is 19.2%. Further, under setting [1], the AC50 is 0.517 µM [rising, full curve]. Besides, the AC50 under setting [2] was 0.164 µM [rising, full curve, poor fit].

`c1ccc2nc(OCCN3CC3)ccc2c1`: the cell number change came to 23%. In addition, the half-maximal activity concentration (AC50) under setting [1] is 2.59 µM [rising, full curve, poor fit].

`O=P(OCC(F)(F)C(F)F)(N1CCCCC1)N1CCCCC1`: the cell number change is -27.8%. For the same compound, the half-maximal activity concentration (AC50) under setting [2] was 18.4 µM [falling, partial curve].

Turning to `CC(=O)Nc1nc(CCl)cs1`, the AC50 under setting [1] is 0.0164 µM [rising, full curve, poor fit] and the AC50 under setting [2] is 0.0103 µM [rising, full curve, poor fit].

With `CCOc1ccc(C(Nc2ccc(C)cc2)P2(=O)OCCCO2)cc1` (stereo unspecified), the half-maximal activity concentration (AC50) under setting [1] is 0.651 µM [falling, full curve, poor fit].

For `COC(=O)C1=C(c2ccc(F)cc2F)C[C@@H]2CC[C@H]1N2C(=O)NCCOc1ccccc1`, the cell number change was -3.01%. Under setting [2], the AC50 is 0.092 µM [rising, full curve, poor fit].

On to `Cc1cc(OC(=O)N(C)C)nc(-c2ccc(C)c(Cl)c2)n1`, for which the cell number change was found to be 13.7%. Moreover, the AC50 under setting [2] was 10.3 µM [rising, partial curve, poor fit].
